Assay results taken from patent US20250114462A1, “HYDROPHILIC FUNCTIONALIZED PARTICLES IN THE DELIVERY OF HYDROPHOBIC DRUGS” (NEW JERSEY INSTITUTE OF TECHNOLOGY, priority 2023, published 2025).

Test: In vitro dissolution profile (USP-42 paddle method)
Type: physicochemical
Experimental: Dissolution measurements were carried out using USP-42 paddle method with Symphony 7100 Distek dissolution instrument. Agilent 8453 model UV-Visible spectrophotometer was used at a wavelength at 295.0 nm for the reference drug Griseofulvin standard absorbance measurements that calibrated to measure the formulation polymer incorporated drugs concentration and dissolution percentage estimation.

- Initial dissolution rate: 186.5 µg/min
- 50% dissolution time (T50) (composites with 0.5 to 1.0% of HFP): 41
Compound: Cc1cc(NS(=O)(=O)c2ccc(N)cc2)no1 [Sulfamethoxazole (SMZ), sulfamethoxazole]
